This note sets out measurements from patent publication US20220348675A1 (I MAB BIOPHARMA US, published 2022).

Amino acid sequences for entries named in this document (tags omitted). A change or cut given only in a name is not applied to a line headed by its entry. Residues count along the entry.
UniProt Q07011: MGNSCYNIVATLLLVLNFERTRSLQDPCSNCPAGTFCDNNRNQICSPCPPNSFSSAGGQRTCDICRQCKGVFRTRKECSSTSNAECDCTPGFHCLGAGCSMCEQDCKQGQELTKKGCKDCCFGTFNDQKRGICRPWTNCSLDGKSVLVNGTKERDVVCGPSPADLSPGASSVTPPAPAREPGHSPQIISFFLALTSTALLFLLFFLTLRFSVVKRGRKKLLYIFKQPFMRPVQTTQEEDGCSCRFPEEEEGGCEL
4-1BB expressed on cells (HEK293-4-1BB, 4-1BB-Jurkat, GloResponse NFκB-luc2/4-1BB Jurkat): residues 24-255 of Q07011
4-1BB (form not stated): residues 24-186 of Q07011

The target of assay [1] is 4-1BB expressed on cells (HEK293-4-1BB, 4-1BB-Jurkat, GloResponse NFκB-luc2/4-1BB Jurkat) (UniProt Q07011). Put plainly: flow cytometry on HEK293-4-1BB cells (FIG. 3). On the technique in general: In flow cytometry, cells or beads pass a laser one at a time.
For assay [2] the target is unchanged. Put plainly: Flow cytometry on HEK293-4-1BB cells, PE anti-human IgG, MFI.
Assay [3] deals with 4-1BB (form not stated) (UniProt Q07011). Put plainly: BLI, Octet Red 96. In general terms: In BLI a coated tip is dipped into the sample, and binding shifts an interference pattern.
Assay [4] addresses 4-1BB expressed on cells (HEK293-4-1BB, 4-1BB-Jurkat, GloResponse NFκB-luc2/4-1BB Jurkat) (UniProt Q07011). In words: flow cytometry on 4-1BB-Jurkat cells.
Assay [5] deals with human 4-1BB-Fc protein (human) (UniProt Q07011). Put plainly: ELISA, coated human 4-1BB-Fc. (In general: ELISA stands for enzyme-linked immunosorbent assay.)

Positions count from the first letter of the chain named. Results are given in words; binding and its absence hold for the method and conditions named. Some binding calls cover weakened binding; strength is not graded here.

B1: 1A10 anti-4-1BB monoclonal antibody (antibody, V domains shown)
VH: EVQLLESGGGLVQPGGSLRLSCAASGFTFSSYDMSWVRQAPGKGLEWVSWISYSGGSIYYADSVKGRFTISRDNSKNTLYLQMNSLRAEDTAVYYCARDAQRNSMREFDYWGQGTLVTVSS
VL: QSVLTQPPSASGTPGQRVTISCSGSSSNIGNNYVTWYQQLPGTAPKLLIYADSHRPSGVPDRFSGSKSGTSASLAISGLRSEDEADYYCATWDYSLSGYVFGGGTKLTVL
For B1, the binding result in assay [1] and in assay [2] was “binds” in each case.

B2: 41B02 anti-4-1BB antibody (antibody, V domains shown)
VH: EVQLLESGGGLVQPGGSLRLSCAASGFTFSGYDMSWVRQAPGKGLEWVSVIYPDDGNTYYADSVKGRFTISRDNSKNTLYLQMNSLRAEDAAVYYCAKHGGQKPTTKSSSAYGMDGWGQGTLVTVSS
VL: B1 VL with Q16R
Turning to B2, the binding entry in assay [3] and in assay [4] was “binds” in each case.

B3: 41B01.04 anti-4-1BB antibody (antibody, V domains shown)
VH: B1 VH with S104A
VL: B1 VL
Consider B3, for which the binding result in assay [4] and in assay [5] was “binds” each time.

B4: 41B01 anti-4-1BB antibody (antibody, V domains shown)
VH: B1 VH with A100G
VL: B1 VL with Q16R
For B4, the binding result in assay [3] and in assay [4] was “binds” in each case.

B5: 41B01.03 anti-4-1BB antibody (antibody, V domains shown)
VH: B1 VH with A100G, N103Q
VL: B1 VL
Turning to B5, the binding entry in assay [4] and in assay [5] was “binds” throughout.

B6: 41B01.01 anti-4-1BB antibody (antibody, V domains shown)
VH: B1 VH
VL: B1 VL with Q16R
In the case of B6, the binding entry in assay [4] was “binds”.

B7: 41B01.02 anti-4-1BB antibody (antibody, V domains shown)
VH: B1 VH with N103Q
VL: B1 VL with Q16R
notes: Full human anti-4-1BB antibody
Turning to B7, in assay [4], the binding result is “binds”.
